1 molecule from US20220396825A1, “METHOD FOR PREPARING […]” (KAO CORPORATION, priority 2019, published 2022) can be followed below.

In this series the test system is fragments of sample DNA (genomic DNA of TA100 strain). The experiment in a line: Frequency of misrecognition of fragments (proportion of cases with inclusion of different indexes). Details: species or system Salmonella typhimurium.

B1: S1 nuclease: single-strand-specific endonuclease (Promega Corporation, catalog No.: M5761) (protein, UniProt P24021 21-287, looked up)
Nuclease S1: WGNLGHETVAYIAQSFVASSTESFCQNILGDDSTSYLANVATWADTYKYTDAGEFSKPYHFIDAQDNPPQSCGVDYDRDCGSAGCSISAIQNYTNILLESPNGSEALNALKFVVHIIGDIHQPLHDENLEAGGNGIDVTYDGETTNLHHIWDTNMPEEAAGGYSLSVAKTYADLLTERIKTGTYSSKKDSWTDGIDIKDPVSTSMIWAADANTYVCSTVLDDGLAYINSTDLSGEYYDKSQPVFEELIAKAGYRLAAWLDLIASQPS
Take B1: the “Increase rate of misrecognition of fragments” value came to 1.04 (S1 nuclease 0.017 U/ng vs without S1 nuclease treatment); 1.16 (S1 nuclease 0.050 U/ng vs without S1 nuclease treatment); 2.32 (S1 nuclease 0.167 U/ng vs without S1 nuclease treatment); 4.85 (S1 nuclease 0.500 U/ng vs without S1 nuclease treatment); 6.72 (S1 nuclease 1.67 U/ng vs without S1 nuclease treatment). The “Proportion (%) of cases with inclusion of different indexes” value (“Proportion (%) … of different indexes” below) by setting is: (S1 nuclease 0.02 U/ng, input DNA 78 amol) 1.60%; (S1 nuclease 0.05 U/ng, input DNA 78 amol) 1.77%; (S1 nuclease 0.08 U/ng, input DNA 20 amol) 1.29%; (S1 nuclease 0.08 U/ng, input DNA 39 amol) 2.69%; (S1 nuclease 0.17 U/ng, input DNA 78 amol) 3.56%; (S1 nuclease 0.25 U/ng, input DNA 20 amol) 2.05%. In addition, the “Proportion (%) … of different indexes” value (S1 nuclease 0.25 U/ng, input DNA 39 amol) was 4.32%; the “Proportion (%) … of different indexes” value (S1 nuclease 0.30 U/ng only (RecJf 0 U/ng), input DNA 78 amol) is reported as 6.03%; the “Proportion (%) … of different indexes” value (S1 nuclease 0.50 U/ng, input DNA 78 amol) stood at 7.44%; the “Proportion (%) … of different indexes” value (S1 nuclease 1.67 U/ng, input DNA 78 amol) worked out at 10.32%.
